# Laboratory results published in PubChem BioAssay AID493014 (National Center for Advancing Translational Sciences (NCATS), 2011).
# Screen size: about 340,000 compounds; about 170 (0.05%) were called active. The shares of active, inactive and inconclusive entries below differ from those in the screen. Calls follow the shape of the dose curve; as a rule, active = well fitted inhibition curve with a large enough effect in the signal ratio, with a control signal flat (not every such curve was filed as active); inconclusive = small, poorly fitted or top-dose-only effect, or effect the other way, or a change in a side signal; inactive = flat fitted curve, though single readings scatter; the % refers to the signal ratio. A potency beside an inconclusive call is a rough fit, not a confirmed value.
# Test: qHTS Assay to Find Inhibitors of Chronic Active B-Cell Receptor Signaling;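 as to activity change, negative = inhibition: plate controls were basal doxycycline-induced cells for no effect and cells given 10 µM MG132 for full effect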
# Settings: ABC-DLBCL IkBa-CBG/CBR reporter, luminescence ratio (green luciferase fused to IkBa over red control in TMD8 lymphoma cells), 4 h; activity change, negative = inhibition: at 46.1 µM (top of the series) unless noted
# Procedure, shortened: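 Doxycycline induced both beetle luciferases in TMD8 lymphoma cells; IKK-driven degradation limits the IkappaBalpha-fused green signal, while red luminescence normalises for cell number and nonspecific effects. Compounds tested up to 46 uM, 4 hrs.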
# Potency is read from the fitted curve at half-maximal effect.
SMILES,"activity change, negative = inhibition",Potency
O=C(NCC1CCCO1)c1ccc(C(=O)NCC2CCCO2)cc1 (configuration not stated),inactive: -4.83%,
O=C(Nc1ccccc1)C1=C[C@@H](C2CCCCC2)C[C@@H](OCCCCO)O1,,"inconclusive: 22.4 µM [falling, partial curve]"
COc1ccccc1CNC(=O)CSc1ccc(-c2cccs2)nn1,inconclusive: -23.1%,
COC(=O)c1ccc(NC(=S)NC2CCCCC2C)cc1 (configuration not stated),inactive: 0.919%,
O=C(CCC(=O)N1CCN(Cc2ccc(F)cc2)CC1)Nc1nnc(C2CCCCC2)s1,inconclusive: 0.595%,
COc1cccc(-c2csc(N3CCN(C(=O)Nc4ccccc4OC)CC3)n2)c1,inconclusive: 1.08%,
COC(=O)/C(=C\c1ccc(O)cc1)c1nc2ccccc2[nH]1,inconclusive: -1.22%,
CCCn1nc(C(=O)Nc2cccc(C(=O)OC)c2)c2ccccc2c1=O,inconclusive: -2.41%,
Cc1ccc(S(=O)(=O)N[C@@H](CC(C)C)C(=O)N2CCC(C(=O)N[C@H](C(=O)O)C(C)C)CC2)cc1,inconclusive: -1.35%,
Cc1ccc2nc(N(CCCN(C)C)C(=O)c3ccc(S(=O)(=O)N4CCc5ccccc5C4)cc3)sc2c1,inactive: 1.33%,
Cc1nc(/C(N)=N/OC(=O)c2ccccc2Cl)c(C(F)(F)F)o1,,"inconclusive: 12.6 µM [falling, partial curve]"
Cc1cccc(Nc2ncnc3nc[nH]c23)c1,,"inconclusive: 4.61 µM [falling, partial curve, poor fit]"
COc1ccc(OC)c(NC(=O)Nc2cc(NC(=O)Nc3cc(OC)ccc3OC)c(C)nc2C)c1,inactive: -1.08%,
CCOC(=O)CSc1ccc2nnc(CCNS(=O)(=O)c3ccccc3)n2n1,inactive: 8.71%,
O=C(/C=C/c1cccc([N+](=O)[O-])c1)Nc1ccc(NC(=O)c2cccs2)cc1,inconclusive: -1.29%,
Cc1ccc(S(=O)(=O)NC2CCOC(C)(C)C2)cc1 (configuration not stated),inconclusive: 13.6%,
O=C(N/N=C/c1ccccc1OC(=O)c1ccc2c(c1)OCO2)c1cccc(F)c1,inconclusive: -5.98%,
COc1ccc(COc2cc(-c3cccc(OC)c3)nc3ccc(NC(=O)c4ccc(Cl)cc4)cc23)cc1,inactive: -3.73%,
COc1ccc(-c2cc(C(=O)N/N=C(\C)c3cccnc3)c3ccccc3n2)cc1,,"inconclusive: 25.1 µM [falling, single point]"
CCN(c1ccccc1)S(=O)(=O)c1cccc(C(=O)Nc2ccc(C)cn2)c1,inconclusive: 2.34%,
Clc1ccc(-c2nnc(-c3ccc(Br)o3)o2)c(Cl)c1,inconclusive: 13.7%,
COc1ccccc1OCCC(=O)OCC(=O)Nc1cc(S(=O)(=O)N(C)C)ccc1Cl,inconclusive: -0.378%,
O=c1c(-c2ccco2)[n+]([O-])c2ccccc2n1OCc1ccccc1F,inconclusive: 18.5%,
CCCc1cc(=O)oc2c3c(ccc12)OCN(Cc1ccc(OC)cc1)C3,inconclusive: 1.4%,
COc1ccc(/C=C/C(=O)OCC(=O)NCCCc2ccccc2)cc1OC,inactive: -0.948%,
Cc1ccc(CN2C(=O)CCC2C(=O)N2CCN(c3ccccc3)CC2)cc1 (configuration not stated),inconclusive: -8.84%,

SMILES,"activity change, negative = inhibition",Potency
O=C(O)c1cccc(-n2sc3ccccc3c2=O)c1,,"inconclusive: 5.8 µM [falling, full curve]"
N#CN=C(c1ccccc1)c1ccccc1,inactive: -2.74%,
O=C(CCN1C(=O)c2ccccc2C1=O)NC(=S)Nc1ccccc1Cl,,"inconclusive: 29.1 µM [falling, single point]"
COC(=O)c1ccc2c(=O)n(CCCCCC(=O)N3CCN(c4ccccc4)CC3)c(=O)[nH]c2c1,inconclusive: 9.4%,
O=C(NCCc1ccccc1)c1coc(=O)c(Br)c1,,"inconclusive: 22.4 µM [falling, single point]"
O=C(CCN1C(=O)COc2ccccc21)NCCCN1CCc2ccccc2C1,inconclusive: 10.6%,
O=C(Nc1ccsn1)c1ccc(Cl)cc1Cl,inactive: 3.63%,
O=C(CC1(O)C(=O)Nc2cc(Cl)cc(Cl)c21)c1ccccc1O (configuration not stated),inconclusive: -4.12%,
CCCCC[C@]12Cc3cc(OC)c(OC)cc3C(O1)c1c(cc(C)n(-c3ccccc3)c1=O)O2,inactive: 9.47% [at 9.22 µM],
CCN(CC)CCC(=O)Nc1ccc2c(c1)N(C(=O)CN(CC)CC)c1ccccc1CC2,inconclusive: -9.67%,
N/C(Cc1ccc([N+](=O)[O-])cc1)=N\OC(=O)c1ccc([N+](=O)[O-])cc1,inconclusive: 14.2%,
COc1cc(C)c(NC(=S)Nc2cccc(Cl)c2C)cc1OC,inactive: -1.55%,
COC(=O)Nc1nnc(CC(=O)Nc2ccccc2C)s1,inconclusive: -5.22%,
O=C(NN=C(Cc1ccccc1)Cc1ccccc1)c1ccc(F)cc1,,"inconclusive: 23.1 µM [falling, partial curve]"
O=C(CCCSc1nc2ccccc2s1)NCc1ccco1,,"inconclusive: 4.47 µM [activator, partial curve]"
O=C(O)COc1ccc(-c2nccc(-c3cccs3)n2)cc1,,"inconclusive: 35.5 µM [rising, single point]"
CCCc1[nH]nc2c1C(c1c(C)nn(-c3ccccc3)c1Cl)C(C#N)=C(N)O2 (configuration not stated),inconclusive: -5.32%,
CCN(CC(=O)Nc1ccc(OC)cc1)C(=O)c1ccc2c(c1)NC(=O)C(C)S2 (configuration not stated),,"inconclusive: 11.6 µM [rising, partial curve]"
COc1ccc(/C=C/c2ccc3cccc(O)c3n2)cc1Br,inconclusive: 1.08%,
O=C(NC1=NCCS1)c1ccc(Cl)cc1,inconclusive: -0.063%,
CC1(C)CNC(=O)CC(C)(C)N1,inconclusive: -1.61%,
CC1(C)C2CC=C(/C=N/n3cnnc3)C1C2 (configuration not stated),inactive: 2.2%,
COC(=O)c1c(NC(NC(C)=O)C(Cl)(Cl)Cl)sc2c1CCCC2 (configuration not stated),,"inconclusive: 3.26 µM [rising, full curve]"
CN(CC(=O)Nc1cccc(S(=O)(=O)N2CCOCC2)c1)CC(=O)Nc1ccc(Cl)c(C(F)(F)F)c1,inconclusive: -20.7%,
O=C(CSc1nc2ccccc2o1)Nc1cc(C(F)(F)F)ccc1N1CCOCC1,inactive: -1.79%,
c1ccc(COc2ccc(-c3sc(Nc4ccccc4)n[n+]3-c3ccccc3)cc2)cc1,,"inconclusive: 11.2 µM [falling, partial curve, poor fit]"

# Some of the entries above in another layout.
SMILES	activity change, negative = inhibition	Potency
CC1(C)C2CC=C(/C=N/n3cnnc3)C1C2 (configuration not stated)	inactive: 2.2%	
COC(=O)c1c(NC(NC(C)=O)C(Cl)(Cl)Cl)sc2c1CCCC2 (configuration not stated)		inconclusive: 3.26 µM [rising, full curve]
CN(CC(=O)Nc1cccc(S(=O)(=O)N2CCOCC2)c1)CC(=O)Nc1ccc(Cl)c(C(F)(F)F)c1	inconclusive: -20.7%	
